Test results: paper PMC2289879
Results are given in words; binding and its absence hold for the method and conditions named. In cells and extracts the contact can be indirect. Some binding calls cover weakened binding; strength is not graded here.

The chains behind the UniProt entries cited, without tags or fusion partners. Where a name states a change or a piece, a line headed by the entry shows the natural chain unless it says otherwise.
UniProt Q96EB6: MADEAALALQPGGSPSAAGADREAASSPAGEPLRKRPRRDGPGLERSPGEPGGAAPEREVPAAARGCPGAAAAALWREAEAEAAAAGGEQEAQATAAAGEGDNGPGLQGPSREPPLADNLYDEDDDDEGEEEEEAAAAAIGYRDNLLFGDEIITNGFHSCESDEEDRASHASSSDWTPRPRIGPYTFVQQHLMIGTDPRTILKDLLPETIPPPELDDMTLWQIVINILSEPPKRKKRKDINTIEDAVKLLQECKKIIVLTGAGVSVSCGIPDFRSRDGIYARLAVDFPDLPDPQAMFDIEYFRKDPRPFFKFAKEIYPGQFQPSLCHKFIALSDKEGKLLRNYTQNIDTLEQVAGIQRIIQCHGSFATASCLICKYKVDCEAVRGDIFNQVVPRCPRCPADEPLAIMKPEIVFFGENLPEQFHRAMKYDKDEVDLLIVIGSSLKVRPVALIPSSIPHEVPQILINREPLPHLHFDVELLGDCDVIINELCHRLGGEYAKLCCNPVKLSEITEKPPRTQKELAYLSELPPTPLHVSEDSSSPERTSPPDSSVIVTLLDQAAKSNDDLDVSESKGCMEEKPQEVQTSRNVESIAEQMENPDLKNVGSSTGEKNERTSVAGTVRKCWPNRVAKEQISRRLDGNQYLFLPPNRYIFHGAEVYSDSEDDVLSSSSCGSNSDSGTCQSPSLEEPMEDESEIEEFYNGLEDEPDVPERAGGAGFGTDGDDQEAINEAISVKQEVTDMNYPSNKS
UniProt P35222: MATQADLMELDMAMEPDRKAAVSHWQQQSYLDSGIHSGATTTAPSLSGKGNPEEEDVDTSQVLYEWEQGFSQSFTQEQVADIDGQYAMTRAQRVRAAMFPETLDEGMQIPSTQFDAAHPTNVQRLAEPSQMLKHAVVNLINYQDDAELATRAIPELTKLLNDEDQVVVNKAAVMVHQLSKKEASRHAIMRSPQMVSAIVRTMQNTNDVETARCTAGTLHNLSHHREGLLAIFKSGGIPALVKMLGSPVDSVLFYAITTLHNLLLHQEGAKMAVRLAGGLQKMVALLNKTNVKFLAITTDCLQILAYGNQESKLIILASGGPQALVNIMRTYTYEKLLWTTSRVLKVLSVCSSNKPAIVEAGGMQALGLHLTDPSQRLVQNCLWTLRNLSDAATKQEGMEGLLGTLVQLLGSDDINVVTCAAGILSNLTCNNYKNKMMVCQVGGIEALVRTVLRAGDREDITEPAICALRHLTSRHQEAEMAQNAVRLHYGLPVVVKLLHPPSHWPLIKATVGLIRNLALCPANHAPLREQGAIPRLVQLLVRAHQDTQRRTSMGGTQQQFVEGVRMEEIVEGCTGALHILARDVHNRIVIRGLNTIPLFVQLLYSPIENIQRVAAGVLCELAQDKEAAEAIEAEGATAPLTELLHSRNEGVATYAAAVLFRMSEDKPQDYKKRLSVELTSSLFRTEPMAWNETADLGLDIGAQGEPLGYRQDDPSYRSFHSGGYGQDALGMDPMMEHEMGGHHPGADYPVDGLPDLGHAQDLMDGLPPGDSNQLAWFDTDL

Legend:
[1] = biological target: endogenous SIRT1 (human (endogenous in LN-CAP)) (UniProt Q96EB6); test: co-IP; endogenous proteins in LN-CAP cell extracts; IP with anti-SIRT1 antibody or normal rabbit IgG as control, blot anti-β-catenin; NP-40 extraction buffer (50 mM Tris-HCl pH 8.0, 150 mM NaCl, 1% NP-40)
[2] = biological target: FLAG-tagged SIRT1 (UniProt Q96EB6); test: co-IP; 293T cells co-transfected with HA-S33Y-β-catenin and FLAG-SIRT1 or vector control; IP with anti-FLAG (blot anti-HA) or with anti-HA (blot anti-FLAG); NP-40 extraction buffer (50 mM Tris-HCl pH 8.0, 150 mM NaCl, 1% NP-40) with 10 mM nicotinamide and 5 µM TSA; IP 2 hr, 4 washes

Row | binding [1] | binding [2] | Substance
1 | binds |  | endogenous β-catenin (from UniProt P35222 1-781)
2 |  | binds | HA-S33Y-β-catenin (from UniProt P35222 1-781)
